Laboratory results taken from publication PMC8500765.
Results are given in words; binding and its absence hold for the method and conditions named. Binding seen in cells or lysates may run through a third protein. Some results given as binding are weak or reduced against the parent protein; the word gives no strength. One block for each binder: values may come before it.

Assays:
[1] = target: β-catenin, mouse lung (mouse (endogenous in lung tissue)) (UniProt Q02248); assay: co-IP; lung tissue lysates of control or sham-operated mice and of mice after LPS injection or CLP surgery (different times); precleared with protein A/G, anti-β-catenin (1:100) overnight at 4°C, protein A/G, six washes, Western blot for VE-cadherin
[2] = target: T1, β-catenin, HPMECs (human (endogenous in HPMECs)), P35222; assay: proximity ligation; Duolink in situ PLA on fixed HPMECs with anti-VE-cadherin and anti-β-catenin antibodies; control, 24 h LPS, Sirt3 shRNA or Sirt3 over; confocal microscopy; conditions: remark: other sources report otherwise
T1 chain: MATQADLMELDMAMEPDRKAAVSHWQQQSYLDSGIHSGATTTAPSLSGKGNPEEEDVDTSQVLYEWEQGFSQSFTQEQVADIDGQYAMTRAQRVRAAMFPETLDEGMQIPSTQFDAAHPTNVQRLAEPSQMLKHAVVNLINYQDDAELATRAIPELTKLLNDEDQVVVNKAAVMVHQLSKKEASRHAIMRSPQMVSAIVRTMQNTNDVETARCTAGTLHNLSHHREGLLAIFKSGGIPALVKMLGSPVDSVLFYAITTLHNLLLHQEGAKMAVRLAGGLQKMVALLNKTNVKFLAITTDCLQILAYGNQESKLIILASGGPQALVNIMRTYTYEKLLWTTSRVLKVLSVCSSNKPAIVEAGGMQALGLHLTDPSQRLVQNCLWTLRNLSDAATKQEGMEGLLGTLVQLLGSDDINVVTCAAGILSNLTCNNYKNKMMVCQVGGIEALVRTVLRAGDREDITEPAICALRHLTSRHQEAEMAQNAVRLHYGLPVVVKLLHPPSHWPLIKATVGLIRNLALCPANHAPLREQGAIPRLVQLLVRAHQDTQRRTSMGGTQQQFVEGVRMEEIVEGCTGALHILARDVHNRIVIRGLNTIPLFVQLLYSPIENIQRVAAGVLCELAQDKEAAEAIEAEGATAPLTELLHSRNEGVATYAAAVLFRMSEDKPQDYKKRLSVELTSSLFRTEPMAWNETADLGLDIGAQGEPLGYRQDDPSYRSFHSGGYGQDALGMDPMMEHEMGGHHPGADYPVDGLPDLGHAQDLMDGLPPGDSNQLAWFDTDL

[3] = target: T1, β-catenin, HPMECs (human (endogenous in …)); assay: co-IP; HPMEC lysates, with or without LPS, after transfection with scramble, Sirt3 shRNA, vector or Sirt3 over; precleared with protein A/G, anti-β-catenin (1:100) overnight at 4°C, protein A/G, six washes, Western blot for VE-cadherin; conditions: remark: other sources report otherwise

binding [1]: binds
B1: vascular endothelial cadherin (VE-cadherin), mouse lung (protein, UniProt P55284 46-784)
chain: DWIWNQMHIDEEKNESLPHYVGKIKSNVNRQNAKYVLQGEFAGKIFGVDANTGNVLAYERLDREKVSEYFLTALIVDKNTNKNLEQPSSFTVKVHDINDNWPVFSHQVFNASVPEMSAIGTSVIRVTAVDADDPTVAGHATVLYQIVKGNEYFSIDNSGLIFTKIKNLDREKQAEYKIVVETQDALGLRGESGTATVMIRLEDINDNFPVFTQSTYTFSVPEDIRVGKPLGFLTVVDPDEPQNRMTKYSIMQGEYRDTFTIETDPKRNEGIIKPTKSLDYEVIQQYTFYIEATDPTIRYEYLSSTSGKNKAMVTINVLDVDEPPVFQRHFYHFKLPENQKKPLIGTVVAKDPDKAQRSIGYSIRKTSDRGQFFRITKQGNIYNEKELDRETYAWYNLTVEANELDSRGNPVGKESIVQVYIEVLDENDNPPEFAQPYEPKVCENAAQGKLVVQISATDKDVVPVNPKFKFALKNEDSNFTLINNHDNTANITVKYGQFNREHAKFHYLPVLISDNGVPSLTGTSTLTVGVCKCNEQGEFTFCEEMAAQAGVSIQALVAIFLCILTITVITLLIILRRRIRKQAHAHSKSALEIHEQLVTYDEEGGGEMDTTSYDVSVLNSVRGGSTKPLRSTMDARPAVYTQVQKPPRLAPGLHGGPREMATMIDVKKEEADNDGGGPPYDTLHIYGYEGAESIAESLSSLSTNSSDSDIDYDFLNDWGPRFKMLAELYGSDPQEELII

binding [2]: binds
binding [3]: binds
B2: vascular endothelial cadherin (VE-cadherin), HPMECs, P33151 48-784 (protein)
chain: DWIWNQMHIDEEKNTSLPHHVGKIKSSVSRKNAKYLLKGEYVGKVFRVDAETGDVFAIERLDRENISEYHLTAVIVDKDTGENLETPSSFTIKVHDVNDNWPVFTHRLFNASVPESSAVGTSVISVTAVDADDPTVGDHASVMYQILKGKEYFAIDNSGRIITITKSLDREKQARYEIVVEARDAQGLRGDSGTATVLVTLQDINDNFPFFTQTKYTFVVPEDTRVGTSVGSLFVEDPDEPQNRMTKYSILRGDYQDAFTIETNPAHNEGIIKPMKPLDYEYIQQYSFIVEATDPTIDLRYMSPPAGNRAQVIINITDVDEPPIFQQPFYHFQLKENQKKPLIGTVLAMDPDAARHSIGYSIRRTSDKGQFFRVTKKGDIYNEKELDREVYPWYNLTVEAKELDSTGTPTGKESIVQVHIEVLDENDNAPEFAKPYQPKVCENAVHGQLVLQISAIDKDITPRNVKFKFILNTENNFTLTDNHDNTANITVKYGQFDREHTKVHFLPVVISDNGMPSRTGTSTLTVAVCKCNEQGEFTFCEDMAAQVGVSIQAVVAILLCILTITVITLLIFLRRRLRKQARAHGKSVPEIHEQLVTYDEEGGGEMDTTSYDVSVLNSVRRGGAKPPRPALDARPSLYAQVQKPPRHAPGAHGGPGEMAAMIEVKKDEADHDGDGPPYDTLHIYGYEGSESIAESLSSLGTDSSDSDVDYDFLNDWGPRFKMLAELYGSDPREELLY
